Results: PubChem BioAssay AID2685 (National Center for Advancing Translational Sciences (NCATS), 2010)
This is one part of the list. Shown are side measurements of this screen, not its main read-out; they come without a call. Most of these compounds were active or inconclusive in the main read-out, so they are no random draw. Words in brackets tell the shape of the fitted curve; partial curves, single points and poor fits give uncertain potencies.

Assay: qHTS Assay for Lipid Storage Modulators in Drosophila S3 Cells;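 for cell number change: cells counted by Cell Tracker Red CMTPX staining in the red channel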
Details: BODIPY lipid droplet fluorescence, 18-24 h; for cell number change: measured here: cell count max response, cells fed with added oleic acid
Summary of the method: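 Laser-scanning cytometry quantifies lipid droplet accumulation (500–530 nm total intensity; droplet/cell object ratio) in oleic acid-fed (400 uM added) Drosophila S3 cells treated with a concentration series. 20 uM Triacsin C defined 100% inhibition.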

[1] = measured here: lipid fluorescence (Fed channel) AC50, cells fed with added oleic acid
[2] = measured here: cell number channel AC50, cells fed with added oleic acid

| SMILES | cell number change [%] | AC50 [1] | AC50 [2] |
| --- | --- | --- | --- |
| Cc1onc(C(=O)NCc2ccccn2)c1[N+](=O)[O-] | 11.4 |  |  |
| Cc1ccc(S(=O)(=O)NC(=O)Nc2c(C)cccc2C)cc1 | -3.81 | 6.51 µM [falling, single point] |  |
| CC1CCCN(c2nc3ccccc3nc2C(C#N)S(=O)(=O)c2ccccc2)C1 (stereo not drawn) | -19.1 | 0.0731 µM [falling, full curve, poor fit] |  |
| O=[N+]([O-])c1cccc(/C(=N/N=C/c2ccccc2Br)C23CN4CN(CN(C4)C2)C3)c1 | 11.8 | 1.3 µM [rising, full curve] | 2.31 µM [rising, partial curve] |
| O=C(CNc1ccccc1F)Nc1cccc(S(=O)(=O)N2CCCCC2)c1 | 43.8 |  | 7.31 µM [rising, partial curve] |
| O=C(NC(=S)N1CCN(Cc2ccc3c(c2)OCO3)CC1)c1cccc(Br)c1 | 16.9 |  |  |
| CCOc1ccccc1C(=O)Nc1cc(C(=O)NCC(C)C)ccc1Cl | -9.18 | 29.1 µM [falling, partial curve] |  |
| COc1ccc(Cc2nnc(SCC(=O)Nc3ccc(N4CCOCC4)cc3)n2C)cc1 | 40.8 |  |  |
| CN(C)c1cc(-c2ccccc2)nc(-c2ccccc2)n1 | 15 | 29.1 µM [rising, single point] |  |
| COC(=O)c1ccc(C(C(=O)NC2CCCCC2)N(Cc2ccc(F)cc2)C(=O)Cc2cccs2)cc1 (stereo not drawn) | -22.2 | 29.1 µM [falling, single point] |  |
| COc1ccc(CNCCc2ccc(Cl)cc2)cc1OCc1ccccc1 | -78.6 | 20.6 µM [falling, partial curve] | 14.6 µM [falling, partial curve] |
| NC(=O)CC(NC(=O)c1ccccc1)c1ccc(N2CCN(c3ccccn3)CC2)c([N+](=O)[O-])c1 (stereo not drawn) | 4.79 | 0.206 µM [rising, full curve] |  |
| Cc1cc(C(=O)N2CCN(c3ccccc3)CC2)no1 | 5.13 | 0.058 µM [falling, full curve] |  |
| C=CCn1c(SCc2ccc(Br)cc2F)nc2cc(C(=O)O)ccc2c1=O | -2.92 | 1.16 µM [rising, single point] |  |
| COc1ccc(N2C(=O)NC(NS(=O)(=O)c3ccc(NC(C)=O)cc3)(C(F)(F)F)C2=O)cc1 (stereo not drawn) | -22.3 | 0.58 µM [falling, single point] |  |
| O=C(COc1ccc(Cl)c(Cl)c1)NC1CCS(=O)(=O)C1 (stereo not drawn) | 13.8 | 29.1 µM [rising, single point] | 0.651 µM [falling, single point] |
| COC(=O)c1c(NC(=O)c2cccc(N3C(=O)CCC3=O)c2)sc2c1CCN(C(C)=O)C2 | -28.3 | 8.2 µM [falling, partial curve] |  |
| NC(=O)c1ccccc1N=Cc1ccccn1 | -3.67 | 0.184 µM [falling, full curve, poor fit] |  |
| CCOc1ccc(CNC(=O)CCCn2nc(C)c3c(C)n(-c4ccc(C)cc4)nc3c2=O)cc1 | 1.91 | 6.51 µM [rising, single point] |  |
| C=CCc1ccccc1OCC(O)CN(CC)CC (stereo not drawn) | 3.38 | 6.51 µM [falling, single point] |  |
| CC1CCCN(C(=O)Cc2cccc3ccccc23)C1 (stereo not drawn) | -15.1 | 0.58 µM [rising, single point] |  |

| SMILES | cell number change [%] | AC50 [1] | AC50 [2] |
| --- | --- | --- | --- |
| COc1cccc(C(=O)c2c[nH]c(C(=O)NCCCN3CCOCC3)c2)c1 | 13.2 |  |  |
| Cc1cccc2c1NC1(CCCC1)CC2C (stereo not drawn) | -39.9 | 11.6 µM [falling, partial curve] | 0.206 µM [falling, full curve, poor fit] |
| Cc1ccc(-c2c(C(=O)N/N=C/c3cccnc3)nnn2-c2nonc2N)cc1 | 25.1 |  |  |
| Cc1cc(C)nc(SCCN2CCOCC2)n1 | 0.132 | 6.51 µM [falling, single point] |  |
| COc1ccccc1C(=O)Nc1ccc(S(=O)(=O)Nc2onc(C)c2C)cc1 | 29.2 | 29.1 µM [rising, single point] |  |
| COc1ccc(C(=O)OC(C)CN2CCOCC2)cc1OC (stereo not drawn) | -2.33 | 5.17 µM [falling, single point] |  |
| Cc1ccc(-n2cccc2/C=C2/C(=N)N3C(=NC2=O)SN=C3S(C)(=O)=O)cc1 | -13.6 |  | 2.91 µM [falling, single point] |
| CCOc1ccccc1CNC(=O)c1ccc2c(c1)N(CC)CCS2 | -10.7 |  |  |
| CCc1nnc(N/N=C/c2ccc(O)c(OC)c2)n1N | -11.7 |  | 0.461 µM [rising, full curve, poor fit] |
| CCn1c(=O)c(C(=O)NCc2ccccc2Cl)c(O)c2ccccc21 | 33.8 | 23.1 µM [rising, single point] | 29.1 µM [rising, single point] |
| Cc1ccc(-c2nn3c(=O)c(C)nnc3s2)cc1 |  | 6.51 µM [rising, partial curve, poor fit] | 2.91 µM [rising, partial curve] |
| Cc1cc(C(=O)COC(=O)c2ccc(N)c([N+](=O)[O-])c2)c(C)n1-c1ccc2c(c1)OCO2 | -12.2 | 0.517 µM [rising, full curve] |  |
| CN(C)C=Nc1nonc1-c1ccc(Cl)cc1 | -54.8 | 20.6 µM [falling, single point] | 16.4 µM [falling, single point] |
| C=CCn1c(CCc2ccccc2)nnc1SCC(N)=O | -3.7 | 6.51 µM [rising, single point] |  |
| O=C(Nc1ccnn1C1CCN(Cc2c(F)cccc2Cl)CC1)C1CCCC1 |  | 0.116 µM [rising, single point] |  |
| Cc1cccc(OCC(=O)Nc2nnc(S(=O)(=O)N3CCCCCC3)s2)c1 | 16.2 | 29.1 µM [falling, single point] |  |
| Cc1c(C(=O)NCCCN2CCOCC2)oc2c1C1(CCC2)SCCS1 | 11.6 | 6.51 µM [rising, partial curve, poor fit] |  |
| CN1C(C(=O)NCc2ccccc2)CC2Cn3c(nc4ccccc43)C21 (stereo not drawn) | 18.1 | 13 µM [rising, single point] |  |
| CCCCCCS(=O)[C@H]1CS(=O)(=O)C[C@@H]1S(=O)CCCCCC (stereo partly drawn) |  |  | 0.517 µM [falling, full curve, poor fit] |
| CCSc1nc(N2CCOCC2)c2c(c1C#N)CC(C)(C)N(C)C2 | 104 | 6.51 µM [falling, single point] | 29.1 µM [rising, single point] |
| CCCCOCCCNC1=NCCCCC1 | 3 | 0.00517 µM [falling, full curve, poor fit] |  |

A few values from the entries so far:
`Cc1ccc(S(=O)(=O)NC(=O)Nc2c(C)cccc2C)cc1` | AC50 [1]: 6.51 µM [falling, single point]
`O=C(Nc1ccnn1C1CCN(Cc2c(F)cccc2Cl)CC1)C1CCCC1` | AC50 [1]: 0.116 µM [rising, single point]

Carrying on.

| SMILES | cell number change [%] | AC50 [1] | AC50 [2] |
| --- | --- | --- | --- |
| O=C(c1ccc(-c2cccc(C(F)(F)F)c2)o1)N1CCCCCCC1 | -48.6 | 2.91 µM [rising, single point] | 32.6 µM [falling, single point] |
| O=C(Nc1ccc(S(=O)(=O)NC2=NCCCCC2)cc1)c1cc(F)c(F)cc1Cl | 22.1 |  |  |
| CCc1ccc(OCC(=O)NC(=S)Nc2ccc(C(C)=O)cc2)c(Br)c1 | -2.79 |  | 0.092 µM [falling, full curve, poor fit] |
| CN1CCN(c2nc(-c3ccc(Cl)s3)cs2)CC1 |  |  | 0.116 µM [rising, full curve, poor fit] |
| CN(CC(=O)Nc1cccc(F)c1)C(=O)CSc1nc2ccccc2s1 | 33.6 |  | 29.1 µM [rising, single point] |
| Cc1ccc(S(=O)(=O)N2Cc3ccccc3CC2C(=O)NC(C)(C)C)cc1 (stereo not drawn) | -6.06 |  |  |
| CC(C)CC(O)(c1ccccc1)C(CN1CCOCC1)c1ccccc1 (stereo not drawn) | -34.8 |  | 25.9 µM [falling, single point] |
| Cc1cc(OCCCCCN2CCCC2)ccc1Cl | -34.7 | 8.91 µM [falling, partial curve, poor fit] | 8.91 µM [falling, partial curve, poor fit] |
| COc1cc(OC)c(C(=O)CCC(=O)O)cc1OC | 11.1 | 1.16 µM [falling, single point] | 1.46 µM [falling, partial curve] |
| CC(Oc1ccccc1Cl)C(=O)N(Cc1cccs1)C1CCS(=O)(=O)C1 (stereo not drawn) | -4.32 | 0.164 µM [falling, full curve, poor fit] |  |
| COc1cccc(CNC(=O)C2Cc3ccccc3CN2C(C)=O)c1 (stereo not drawn) | -18.4 |  |  |
| CS(=O)(=O)N(Cc1ccc(C(=O)NCCSCc2ccco2)cc1)c1ccccc1 |  | 4.61 µM [rising, partial curve] | 6.51 µM [rising, single point] |
| CCOC(=O)/C=C1\SCC(=O)N1CC(=O)Nc1ccc(C(C)C)cc1 | -17 |  |  |
| COc1ccc(OC)c(C2C(C(C)=O)=C(O)C(=O)N2Cc2cccnc2)c1 (stereo not drawn) | 16 | 20.6 µM [falling, single point] |  |
| Cc1ccc(-c2cc(-c3ccccc3)nc(N(C)N)n2)cc1 | -15.6 | 14.6 µM [falling, single point] |  |
| S=c1[nH]nc(CN2CCCC2)n1Cc1ccccc1 | 1.38 |  |  |
| COc1cc(OC)c(NC(=O)CS(=O)(=O)Cc2nc(-c3ccc(C)cc3)oc2C)cc1Cl | -8.84 | 16.4 µM [falling, single point] |  |
| Cc1cc(OC(=O)c2ccc(S(=O)(=O)N(C)C)cc2)cc(=O)o1 | 2.79 | 6.51 µM [falling, single point] |  |
| COc1ccccc1Nc1nc2ccc(C)cc2cc1C#N | 22.5 | 29.1 µM [rising, single point] |  |
